US20170066836A1 (NATIONAL UNIVERSITY CORPORATION KOCHI UNIVERSITY, published 2017)
These are yes or no findings as the source states them, for the method shown. Some results given as binding are weak or reduced against the parent protein; the word gives no strength. For some of these results: Tags and fused reporters may be left off the sequences shown.

T1: mouse Glypican-1 expressed on 293 cells (mouse, UniProt Q9QZF2 24-529)
T1 construct: whole, on cells; also called mouse GPC-1; mouse GPC1
T1 sequence (looked up): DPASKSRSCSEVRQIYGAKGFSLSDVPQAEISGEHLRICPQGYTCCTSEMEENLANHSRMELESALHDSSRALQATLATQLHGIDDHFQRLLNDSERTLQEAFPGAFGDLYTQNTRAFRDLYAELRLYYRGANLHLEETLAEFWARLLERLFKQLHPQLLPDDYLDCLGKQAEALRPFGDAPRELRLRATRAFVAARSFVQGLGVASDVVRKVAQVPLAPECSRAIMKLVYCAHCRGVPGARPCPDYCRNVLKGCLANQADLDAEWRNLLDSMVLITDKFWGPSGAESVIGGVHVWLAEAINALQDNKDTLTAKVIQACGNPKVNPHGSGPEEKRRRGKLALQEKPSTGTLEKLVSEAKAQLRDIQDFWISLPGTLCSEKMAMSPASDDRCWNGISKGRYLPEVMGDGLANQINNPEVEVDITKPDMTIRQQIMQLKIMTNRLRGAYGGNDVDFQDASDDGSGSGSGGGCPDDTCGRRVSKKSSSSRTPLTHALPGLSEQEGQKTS

T2: human Glypican-1 expressed on 293 cells (pFLAG-CMV3 hGPC1) (human) (UniProt P35052)
T2 sequence: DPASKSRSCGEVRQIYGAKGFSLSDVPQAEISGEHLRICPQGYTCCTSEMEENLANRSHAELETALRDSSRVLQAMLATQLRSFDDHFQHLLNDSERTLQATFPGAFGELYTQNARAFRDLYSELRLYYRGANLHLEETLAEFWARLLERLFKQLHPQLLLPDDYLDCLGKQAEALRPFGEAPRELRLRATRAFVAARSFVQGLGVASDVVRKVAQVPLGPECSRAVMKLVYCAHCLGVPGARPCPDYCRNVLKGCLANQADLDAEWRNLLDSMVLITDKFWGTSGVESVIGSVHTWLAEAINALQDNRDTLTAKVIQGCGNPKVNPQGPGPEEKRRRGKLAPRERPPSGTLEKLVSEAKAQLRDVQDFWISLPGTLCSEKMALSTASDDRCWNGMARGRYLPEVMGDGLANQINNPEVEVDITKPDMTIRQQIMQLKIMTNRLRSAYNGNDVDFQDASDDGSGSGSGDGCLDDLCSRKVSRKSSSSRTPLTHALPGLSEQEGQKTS

T3: human Glypican-1 forcibly expressed on CT01 chicken T-lymphoblast-like cells (CT01-GPC-1#42) (human) (UniProt P35052)
T3 sequence: T2 sequence

B1: anti-GPC-1 antibody 2-60 (antibody, V domains shown)
VH: AVTLDESGGGLQTPGGALSLVCKASGFTYSSYAMGWVRQAPGKGLEFVASISSDGSDTAYGSAVKGRATISRDNRQSTLRLQLNNLRAEDTGTYYCAKSYRCSWNCWDYAAKIDAWGHGTEVTVS
VL: VALTQPASVSANPGETVKITCSGSGSYTGSYYYGWYQQKSPGSAPVTVIYNNNKRPSDIPSRFSGSTSGSTATLTITGVQAEDEAVYFCGSYDRSSDSGIFGAGTTLTV
notes: detection was with anti-mouse IgG and the control was mouse IgG2a; also called #17; clone 2-60
B2: anti-GPC-1 antibody 2-70 (antibody, V domains shown)
VH: AVTLDESGGGLQTPGGALSLVCKASGLSTFSDRGMHWVRQAPGKGLEFVAAISSSGRFTLYGAAVKGRATISRDNGQSTVRLQLNDLRAEDTAIYYCARGTTTGWWADAGEIDAWGHGTEVIVST
VL: ALTQPAFMSANPGETVKITCSGGSYSAYGWFQQKSPGSAPVTLIYNDNIRPSDISSRFSGSKSGSTATLTITGVQADDEAVYFCGNEDRNNTATFGAGTTLTV
notes: detection was with anti-mouse IgG and the control was mouse IgG2a; also called #19; clone 2-70
B3: anti-GPC-1 antibody 1-66 (antibody, V domains shown)
VH: AVTLDESGGGLQTPGGALSLVCKASGFTFSSYAMGWVRQAPGKGLEFVAGIDRTGTYAGYGAAVKGRATISRDNGQSTVRLQLNNLRAEDTGTYYCAKESTSGCASGICTAAWIDAWGHGTEVIVST
VL: ALTQPSSVSANPGETVKITCSGGGSDYGYGWHQQKSPGSAPVTVIYSNNKRPTDIPSRFSGSTSGSTATLTITGVRAEDEAVYYCGSADSSTFHGIFGAGTTLTV
B4: anti-GPC-1 antibody 1-77 (antibody, V domains shown)
VH: AVTLDESGGGLQTPGGGLSLVCKGSGFTLTDRGMHWVRQAPGKGLEWVAAISSSGRFTLYAPAVTGRATISRDNGQSTVRLQLNNLRAEDTGTYYCARGNAGGWWADGGEIDAWGHGTEVIVST
VL: ALTQPSSVSANPGETVKITCSGGSGSYGWFQQKSPGSAPVTVIYSNNKRPSDIPSRFSGSKSGSTNTLTITGVQADDEAVYFCGSADSSYIGIFGAGTTLTV
B5: anti-GPC-1 antibody 1-91 (antibody, V domains shown)
VH: AVTLDESGGGLQTPGRALSLVCKASGFTFSNYDMLWVRQAPGKGLEWVGVISSSGSSTNYGAAVKGRATISRDNGQNTVRLQLNNLRAEDTATYYCAKSAYGYYGSGVSDIDAWGLGTEVIVST
VL: ALTQPSSVSANPGETVKITCSGGSGNNYGWYQQKSPGSALVTVIYDNNKRPTDIPSRFSGSTSGSTGTLTITGVQAEDEAVYFCGGYDSSTYADIFGAGTTLTV
B6: anti-GPC-1 antibody 2-11 (antibody, V domains shown)
VH: AVTLDESGGGLHTPGGTLSLVCKASGFTFSSYDMIWVRQAPGKGLEYVAEIINTGRETYYGAAVKGRATISRDNRQSTLRLQLNNLRAEDTGTYFCAKAAPWNYAGSIDAWGHGTEVIVST
VL: ALTQPASVSANPGETVKITCSGDDSDYGWYQQKSPGSAPVTVIYSNDERPSDIPSRFSGSKSGSTATLTITGVQADDEAVYYCGSADTSSGTNIFGAGTTLTV
B7: anti-GPC-1 antibody 2-57 (antibody, V domains shown)
VH: AVTLDESGGGLQTPGGALSLVCKASGFDFSSFNMFWVRQAPGKGLEYVAQISSDGSFTAYGAAVKGRATISKDNGQSTVRLQLSNLRAEDTGTYYCTKSASGSVWTAAFSAGSIDAWGHGTEVIVST
VL: ALTQPASVSAKPGETVKITCSGGSIGYSYGWFQQKSPGSAPVTVIYNNNNRPWDIPSRFSGSKSGSTATLTITGVQVADEAVYYCGSADSAGYSGMFGAGTTLTV
B8: anti-GPC-1 antibody 2-77 (antibody, V domains shown)
VH: AVTLDESGGGLQTPGGGLSLVCKASGFDFSNNGMGWVRQAPGKGLEWVAGISGSGTTAYGAAVKGRVTISRDNGQSTVRLQLNNLRAEDTGTYYCAKAAGSCGSDCYTTGFIDAWGHGTEVTVST
VL: ALTQPASVSANPGETVEITCSGGSGNYGWFQQKSPGSAPVTLIYWDDERPSNIPSRFSGSTSGSTATLTITGVQADDEAVYFCGSRDTNYVGMFGAGTTLTV
B9: anti-GPC-1 antibody 1-27 (antibody, V domains shown)
VH: B8 VH
VL: B8 VL
B10: anti-GPC-1 antibody 2-14 (antibody, V domains shown)
VH: AVTLDESGGGLQTPGGALSLICKASGFSFSNYDILWVRQAPGKGLEFVAAVSSVSVPSYAPAVKGRATISRDNGQSTVRMQLNNLRAEDSATYYCARGGAGHYYSTATGNIDVWGHGTEVTVST
VL: ALTQPSSVSANPGETVKITCSGGYSGYGYGWYQQKSPGSAPVTVIYDNTNRPSNIPSRFSGSLSGSTNTLTITGVQADDEAVYYCGSTDGSTYIGIFGAGTTLTV

The binders below were run against T1, mouse Glypican-1 expressed on 293 cells (assay: FACS on 293 cells forcibly expressing mouse GPC1).
Method: A mouse Glypican-1 expression vector or an empty vector was transfected to the 293 cell using lipofectamine 2000 and the reactivity with various clones of an anti-Glypican-1 antibody was analyzed by FACS.

| Binder | binding |
| --- | --- |
| B1 | binds |
| B2 | binds |

What follows are binders tested against T2, human Glypican-1 expressed on 293 cells (pFLAG-CMV3 hGPC1) (human) (assay: FACS on 293 cells transfected with pFLAG-CMV3 hGPC1).

| Binder | binding |
| --- | --- |
| B1 | binds |

What follows are binders tested against T1, mouse Glypican-1 expressed on 293 cells (assay: FACS on 293 cells transfected with a mouse Glypican-1 expression vector against an empty vector).

| Binder | binding |
| --- | --- |
| B1 | binds |
| B2 | binds |

What follows are binders tested against T3, human Glypican-1 forcibly expressed on CT01 chicken T-lymphoblast-like cells (CT01-GPC-1#42) (human) (assay: FACS on CT01 cells forcibly expressing human Glypican-1 against CT01 cells).

| Binder | binding |
| --- | --- |
| B3 | binds |
| B4 | binds |
| B5 | binds |
| B6 | binds |
| B7 | binds |
| B1 | binds |
| B8 | binds |
| B9 | binds |
| B10 | binds |

What follows are binders tested against T3, human Glypican-1 forcibly expressed on CT01 chicken T-lymphoblast-like cells (CT01-GPC-1#42) (human) (assay: FACS: clone as primary antibody, FITC-labeled goat anti-mouse IgG as secondary; CT01 cells forcibly expressing human Glypican-1 (CT01-GPC-1#42), Glypican-1-negative CT01 cells as negative cells).

| Binder | binding |
| --- | --- |
| B3 | binds |
| B4 | binds |
| B5 | binds |
| B6 | binds |
| B7 | binds |
| B1 | binds |
| B8 | binds |
| B9 | binds |
